At least one peptide structure holds a part that was inferred or is arguable (an end, a ring closure or a residue). Ends that are not written are not given here.
Test system: other HPV- and p16^INK4a negative cell lines
Assay: Chromium release assay, negative cell lines as targets
Type: cell-based, human
Conditions: CD8+ T cells of a cervical cancer patient reactive against the peptide; ME180 and K562 per Figure 3

LPNAPNSYGRRPIQVMMMGSARVAELL [p16INK4a_37-63]
lysis of other HPV- and p16^INK4a negative cell lines: no lysis could be detected

Reference: patent EP2573105B1, “p16INK4a derived peptides for prophylaxis and therapy of HPV-associated tumors and other p16INK4a expressing tumors” (Ruprecht-Karls-Universität Heidelberg, priority 2011, dated 2013)
